Test results as given in patent US11060124B2, “Methods for making high intensity sweeteners” (Firmenich Incorporated, priority 2017, dated 2021).

Legend:
[1] = tested on: Y. lipolytica; test: Yeast grown in the presence of the mogroside, cells lysed, mogroside content by HPLC; format: cell-based
[2] = Analytical results (observed concentration) of the sensory test samples; details: theoretical 175 ppm in LSB, n = 2
[3] = tested on: Candida bombicola; test: Tolerance to microbial hydrolysis: yeast incubated in YPD with the mogroside, supernatant analyzed by HPLC; format: cell-based; details: 1 mg/ml, after 3 days
[4] = tested on: Saccharomyces cerevisiae; test: as above; format: cell-based; details: 1 mg/ml, after 3 days
[5] = tested on: Yarrowia lipolytica; test: as above; format: cell-based; details: 1 mg/ml, after 3 days
[6] = tested on: S. cerevisiae; test: Yeast grown in the presence of the mogroside, cells lysed, mogroside content by HPLC; format: cell-based; details: for mogroside content by HPLC: S. cerevisiae, lysed cells

C[C@H](CC[C@@H](O[C@@H]1O[C@H](CO[C@H]2O[C@H](CO)[C@@H](O)[C@H](O)[C@H]2O)[C@@H](O)[C@H](O)[C@H]1O[C@@H]1O[C@H](CO)[C@@H](O)[C@H](O)[C@H]1O)C(C)(C)O)C1CC[C@@]2(C)C3CC=C4C(CC[C@H](O[C@@H]5O[C@H](CO)[C@@H](O)[C@H](O)[C@H]5O)C4(C)C)[C@]3(C)[C@H](O)C[C@]12C (stereo partly shown) [Compound 1]
hydrolysis products ([1]; Y. lipolytica grown in the presence of the compound): no hydrolysis product from Compound 1 was detected; also recorded: no hydrolysis products due to hydrolysis of Compound 1 was observed | Observed (μM) ([2]; Test day): 132.20 ± 1.54 (n = 2) μM | Observed (μM) ([2]; the day before the testing day): 134.48 ± 7.31 (n = 2) μM | hydrolysis products observed by HPLC [3]: no hydrolysis products observed | hydrolysis products observed by HPLC [4]: no hydrolysis products observed | hydrolysis products observed by HPLC [5]: no hydrolysis products observed | hydrolysis products ([6]; S. cerevisiae grown in the presence of the compound): no hydrolysis product from Compound 1 was detected; also recorded: no hydrolysis products due to hydrolysis of Compound 1 was observed

C[C@H](CC[C@@H](O[C@@H]1O[C@H](CO[C@@H]2O[C@H](CO)[C@@H](O)[C@H](O)[C@H]2O)[C@@H](O)[C@H](O)[C@H]1O[C@@H]1O[C@H](CO)[C@@H](O)[C@H](O)[C@H]1O)C(C)(C)O)[C@H]1CC[C@@]2(C)[C@@H]3CC=C4[C@@H](CC[C@H](O[C@@H]5O[C@H](CO[C@@H]6O[C@H](CO)[C@@H](O)[C@H](O)[C@H]6O)[C@@H](O)[C@H](O)[C@H]5O)C4(C)C)[C@]3(C)[C@H](O)C[C@]12C [Mogroside V, reference compound]
mogroside content by HPLC ([1]; Y. lipolytica, after 2 days of incubation, lysed cells): produced mostly Mogroside IIIE | hydrolysis products observed by HPLC [3]: hydrolyzed Mogroside V to Mogroside IIIE | hydrolysis products observed by HPLC [4]: hydrolyzed Mogroside V to Mogroside IIIE | hydrolysis products observed by HPLC [5]: hydrolyzed Mogroside V to Mogroside IIIE | mogroside content by HPLC ([6]; after 1 day of incubation): produced a mixture of Mogroside V, Mogrosides IV, and Mogroside IIIE | mogroside content by HPLC ([6]; after 2 days of incubation): substantially all of the mogrosides were converted to Mogroside IIIE

“Also recorded” adds a separate entry of the source.
